Data as given in US20090239918A1, “SELECTIVE SUBTYPE ALPHA 2 ADRENERGIC AGENTS AND METHODS FOR USE THEREOF” (ALLERGAN, INC., priority 2008, published 2009).
The match of structure and compound is tentative.

Chains of the proteins cited; added tags and fusions are not shown.
UniProt P18089, whole entry: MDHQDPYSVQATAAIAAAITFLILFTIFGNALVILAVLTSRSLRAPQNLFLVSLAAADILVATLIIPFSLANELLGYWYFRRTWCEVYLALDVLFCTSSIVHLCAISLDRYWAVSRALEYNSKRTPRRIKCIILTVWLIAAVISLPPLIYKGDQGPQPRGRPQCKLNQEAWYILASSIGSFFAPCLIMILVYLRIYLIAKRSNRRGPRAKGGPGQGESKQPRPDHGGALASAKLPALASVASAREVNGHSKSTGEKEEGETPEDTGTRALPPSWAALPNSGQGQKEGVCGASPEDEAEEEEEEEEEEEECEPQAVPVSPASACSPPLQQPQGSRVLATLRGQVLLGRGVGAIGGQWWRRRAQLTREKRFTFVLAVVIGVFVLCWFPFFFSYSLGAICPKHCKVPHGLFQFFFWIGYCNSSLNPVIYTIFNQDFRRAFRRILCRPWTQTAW

Target: Alpha 2B receptor (Homo sapiens, UniProt P18089)
Assay: RSAT (Receptor Selection and Amplification Technology) assay, alpha 2B
Method: 76, pp. 308-311 (incorporated herein by reference) and is also described below.
The RSAT assay measures a receptor-mediated loss of contact inhibition that results in selective proliferation of receptor-containing cells in a mixed population of confluent cells. The increase in cell number is assessed with an appropriate transfected marker gene such as β-galactosidase, the activity of which can be easily measured in a 96-well format. Receptors that activate the G protein, Gq, elicit this response. Alpha 2 receptors, which normally couple to Gi, activate the RSAT response when coexpressed with a hybrid Gq protein that has a Gi receptor recognition domain, called Gq/i5.
NIH-3T3 cells are plated at a density of 2×10^6 cells in 15 cm dishes and maintained in Dulbecco's modified Eagle's medium supplemented with 10% calf serum. […] After washing with phosphate-buffered saline, β-galactosidase enzyme activity is determined by adding 200 μL of the chromogenic substrate (consisting of 3.5 mM o-nitrophenyl-β-D-galactopyranoside and 0.5% nonidet P-40 in phosphate buffered saline), incubating overnight at 30° C. and measuring optical density at 420 nm. The absorbance is a measure of enzyme activity, which depends on cell number and reflects a receptor-mediated cell proliferation. […]

## Clc1cccc(C(Cc2ccccc2Br)NC2=NCCN2)c1 (centres unmarked)
Ratio of maximal effect of the drug to maximal effect of standard full agonist brimonidine
  RSAT (rel eff) Alpha 2B, intrinsic activity: 0.84
read-out: RSAT EC50 (nM) Alpha 2B, NIH-3T3 cells cotransfected with receptor and Gq/i5, na = not active
  EC50: 0.66 nM
